For assay [1], the target named is T1, GST-tagged SH3 domain of EndoA2 (rat) (UniProt O35964).
T1 sequence: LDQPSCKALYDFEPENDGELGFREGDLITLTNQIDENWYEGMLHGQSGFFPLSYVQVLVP
Nature of the assay: pull-down.

Assay [2] concerns the target Myc-tagged NHSL1-F1 with the 9 EndoA2 sites that do not bind Abi mutated (human). Briefly: far-Western, overlay or dot blot.
Assay [3] has as its target Myc-tagged wild-type NHSL1-F1 (human). Nature of the assay: far-Western, overlay or dot blot.

No constants are given. Whether binding was seen depends on the method and setting. Binding can be weak; no strength is given. Where a sequence is shown, tags or fusion partners need not be part of it. For part of these data: Binding seen in cells or lysates may run through a third protein.

Myc-tagged wild-type NHSL1-F1 (human): the binding result in assay [1] is “binds”.

B1: MBP-tagged EndoA2 SH3 domain (domain or fragment, UniProt O35964 306-365)
chain: LDQPSCKALYDFEPENDGELGFREGDLITLTNQIDENWYEGMLHGQSGFFPLSYVQVLVP
Regarding B1, the binding result in assay [2] and in assay [3] was “binds” throughout.

(Values after article doi:10.1101/2024.10.23.619882.)
